# PubChem BioAssay AID720505 – Drosophila RNAi Screening Center | 2013
# Aim: 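Fly regulators or components of the CRAC channel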 (primary screen)
# System: Drosophila S2R+ cells
# Reagents: long dsRNA against Drosophila genes
# Challenge: thapsigargin (2 µM) in calcium-free buffer to empty internal stores, then 2 mM calcium added back
# Detection: 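Fluo-4 signal in 384-well plates read on a FLIPR after thapsigargin (2 µM, calcium-free) store depletion and 2 mM calcium add-back; unnormalised mean endpoint per well; screen run twice, selected wells retested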
# Scale: calcium signal and retest calcium signal: higher = more calcium entry after store depletion
# Call rule: 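About 1500 genes called as lowering calcium entry, by varying amounts, judged against per-plate control wells with STIM1 as positive and Rho1 as negative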
# Meaning of the calls: active = called as lowering calcium entry; inactive = not called
# The deposit covers about 20,000 reagents; shown is an unselected part of those that have a named target and a result. Of all reagents, about 2,100 (10%) were called active. 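Raw plate signals without normalisation; calls rest on control-based scores that were not deposited; replicate 2 separates called from uncalled poorly.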 Names joined by + are all predicted targets of the reagent. Reagent sequences are not shown. Not given: the amount of reagent, the time to read-out.
gene,DRSC id,"calcium signal, replicate 1","calcium signal, replicate 2","retest calcium signal, replicate 1","retest calcium signal, replicate 2",Outcome
gce,DRSC19613,73.4,91.5,,,inactive
gce,DRSC19974,77.6,97.7,,,inactive
g,DRSC20335,76.2,105,,,active
CG7025,DRSC03002,62.9,198,,,active
Pc,DRSC11873,82.5,162,,,inactive
orb,DRSC17021,112,183,,,inactive
orb,DRSC23148,109,137,,,inactive
Hip14,DRSC10570,108,124,,,inactive
Tcs4,DRSC19587,132,136,,,inactive
Not10,DRSC14129,110,113,,,inactive
CG10561,DRSC02068,100,92.2,,,inactive
Nsf2,DRSC22104,75.1,187,,,inactive
CG14933 + CG42486,DRSC02415,213,163,,,inactive
gkt + CR31953,DRSC00709,122,177,,,inactive
CG10300,DRSC14225,132,137,,,inactive
CG8042,DRSC09676,54.7,75.9,,,active
tbrd-3,DRSC04295,77,129,,,inactive
CG17601,DRSC20639,153,95.8,,,inactive
CG2641,DRSC15441,111,206,,,inactive
pkaap,DRSC01925,79.8,106,,,inactive
betaTub85D,DRSC16910,56.7,81.2,,,active
CG4949,DRSC19926,120,89.5,,,inactive
Pp2C1,DRSC18699,74.2,97.7,,,inactive
Pp2C1,DRSC23287,146,167,,,inactive
CG10621,DRSC02078,116,126,,,inactive
wbl,DRSC07718,110,93.6,,,inactive
CycJ,DRSC08653,89.9,99.5,,,inactive
CG13901,DRSC08371,86.8,89.6,,,inactive
CG12684,DRSC17875,218,119,,,inactive
Nup160,DRSC02774,157,122,,,inactive
daed,DRSC00299,83.7,148,,,inactive
CG13786,DRSC02289,127,81,,,inactive
CG15115,DRSC06537,109,129,,,inactive
Svil,DRSC07981,,,,,active
Svil,DRSC08296,146,86.4,,,inactive
Svil,DRSC08332,116,79.5,,,inactive
Svil,DRSC08333,111,57.4,,,inactive
Svil,DRSC08494,96.5,83.3,,,inactive
NPFR,DRSC12173,119,134,,,inactive
His2B:CG33870 + His2B:CG33868 + His2B:CG33882 + 21 more,DRSC03757,51.2,114,,,active
et,DRSC19582,182,81.8,,,inactive
CG17118,DRSC02579,76.9,95.1,,,inactive
CG33502 + CG32857 + CG32500,DRSC20817,84.8,9020,,,inactive
CG33502 + CG32857 + CG32500,DRSC21038,98.3,116,,,inactive
CG18473,DRSC16381,69.5,82.3,,,active
Uros2,DRSC16505,159,209,,,inactive
Sf3b2,DRSC00619,55.8,97.2,,,active
sli,DRSC07684,126,134,,,inactive
sli,DRSC22936,106,181,,,inactive
GluRIIC,DRSC00642,142,202,,,inactive
Ugt35C1,DRSC16080,53.3,167,,,active
Hel89B,DRSC16700,209,183,134,93.7,inactive
Hel89B,DRSC21575,169,95.2,,,inactive

Active calls, among the entries above:
gene,DRSC id,"calcium signal, replicate 1","calcium signal, replicate 2","retest calcium signal, replicate 1","retest calcium signal, replicate 2",Outcome
g,DRSC20335,76.2,105,,,active
CG7025,DRSC03002,62.9,198,,,active
CG8042,DRSC09676,54.7,75.9,,,active
betaTub85D,DRSC16910,56.7,81.2,,,active
Svil,DRSC07981,,,,,active
His2B:CG33870 + His2B:CG33868 + His2B:CG33882 + 21 more,DRSC03757,51.2,114,,,active
CG18473,DRSC16381,69.5,82.3,,,active
Sf3b2,DRSC00619,55.8,97.2,,,active
Ugt35C1,DRSC16080,53.3,167,,,active

The results go on.
gene,DRSC id,"calcium signal, replicate 1","calcium signal, replicate 2","retest calcium signal, replicate 1","retest calcium signal, replicate 2",Outcome
Cp7Fb,DRSC18034,228,109,,,inactive
Gr66a,DRSC10783,91.7,80.8,,,inactive
pic,DRSC16639,112,88.3,,,inactive
CG4686,DRSC15622,217,157,,,inactive
CG31013,DRSC16542,214,183,,,inactive
Blimp-1,DRSC10496,92.9,78.6,,,inactive
CR18275,DRSC18151,64.2,108,,,active
CG9173,DRSC08635,104,155,,,inactive
TfIIA-S-2,DRSC17791,101,127,,,inactive
wapl,DRSC18851,125,113,,,inactive
asp,DRSC16903,147,267,,,inactive
Akr1B,DRSC10581,104,152,,,inactive
e(r),DRSC18768,152,162,,,inactive
CG33635,DRSC00006,63.4,71.3,,,active
Kif3C,DRSC17209,93.2,145,,,inactive
Kif3C,DRSC17210,90.2,155,,,inactive
CAH9,DRSC15963,145,164,,,inactive
Spn43Ab,DRSC06781,106,103,,,inactive
CG44098,DRSC12214,65.2,116,113,119,active
CG44098,DRSC12240,90.1,92.2,,,inactive
CG44098,DRSC12327,84.7,128,,,inactive
CaMKII,DRSC17214,113,136,,,inactive
enc,DRSC08716,107,88.9,,,inactive
nw,DRSC06451,153,104,,,inactive
nw,DRSC06749,101,136,,,inactive
nw,DRSC06896,177,182,,,inactive
Slik,DRSC04471,182,106,,,inactive
CG11663,DRSC17793,120,181,,,inactive
CG11663,DRSC23063,102,160,,,inactive
CG10252,DRSC14221,170,201,,,inactive
